Experimental data published in US7732416B2, “Avermectins substituted in the 4″-position having pesticidal properties” (Merial Limited, priority 2001, dated 2010).
Some of these results come from one statement about several compounds together.

Columns and labels:
Assay type in all cases: in vivo
[1] = tested on: Heliothis virescens; experiment: Example B3 Activity against Heliothis virescens (eggs on filter paper); conditions: 0.8 ml test solution on 0- to 24-hour-old eggs, evaluation after 6 days
[2] = tested on: Plutella xylostella; experiment: Example B4 Activity against Plutella xylostella caterpillars (sprayed cabbage plants); conditions: 12.5 ppm spray liquor, first-stage caterpillars, 3 days
[3] = tested on: Diabrotica balteata; experiment: Example B6 Activity against Diabrotica balteata (sprayed maize seedlings); conditions: 12.5 ppm spray liquor, second-stage larvae, 6 days
[4] = tested on: Tetranychus urticae; experiment: Example B7 Activity against Tetranychus urticae (sprayed bean plants); conditions: 12.5 ppm spray liquor, mixed population, 25° C., 6 days
[5] = tested on: Frankliniella occidentalis; experiment: Example B5 Activity against Frankliniella occidentalis (bean leaf discs); conditions: bean leaf discs sprayed with test solution, mixed population, 10 days
[6] = tested on: Spodoptera littoralis; experiment: Example B2 Activity against Spodoptera littoralis, systemic (maize seedlings); conditions: maize seedlings 6 days in test solution, L1 larvae on cut leaves, 4 days
[7] = tested on: Spodoptera littoralis; experiment: Example B1 Activity against Spodoptera littoralis (sprayed soya bean plants); conditions: 12.5 ppm spray liquor, first-stage caterpillars, 3 days

Measured: reduction in the pest population

C=C(CN(C)[C@@H]1[C@H](C)O[C@@H](O[C@H]2[C@H](C)O[C@@H](O[C@@H]3/C(C)=C/C[C@@H]4C[C@@H](C[C@]5(C=C[C@H](C)[C@@H](C(C)CC)O5)O4)OC(=O)[C@@H]4C=C(C)[C@@H](O)[C@H]5OC/C(=C\C=C\C3C)[C@]54O)C[C@@H]2OC)C[C@@H]1OC)C(=O)OCC (stereo partly shown) [2.020]
more than 80%: [1] | [2] | [3] | [4] | [5] | [6] | [7]

CCC(C)C1OC2(C=CC1C)CC1CC(CC=C(C)C(OC3CC(OC)C(OC4CC(OC)C(N(C)Cc5cc(F)ccc5F)C(C)O4)C(C)O3)C(C)C=CC=C3COC4C(O)C(C)=CC(C(=O)O1)C34O)O2 (stereo not shown) [2.046]
more than 80%: [1] | [2] | [3] | [4] | [5] | [6] | [7]

CCC(C)[C@H]1O[C@]2(C=C[C@@H]1C)C[C@@H]1C[C@@H](C/C=C(\C)[C@@H](O[C@H]3C[C@H](OC)[C@@H](O[C@H]4C[C@H](OC)[C@H](N(C)CC(=O)OC)[C@H](C)O4)[C@H](C)O3)C(C)/C=C/C=C3\CO[C@@H]4[C@H](O)C(C)=C[C@@H](C(=O)O1)[C@]34O)O2 (stereo partly shown) [2.005]
more than 80%: [1] | [2] | [3] | [4] | [5] | [6] | [7]

CCC(C)C1OC2(C=CC1C)CC1CC(CC=C(C)C(OC3CC(OC)C(OC4CC(OC)C(NC(C)CCCO)C(C)O4)C(C)O3)C(C)C=CC=C3COC4C(O)C(C)=CC(C(=O)O1)C34O)O2 (stereo not shown) [1.038]
more than 80%: [1] | [2] | [3] | [4] | [5] | [6] | [7]

CCC(C)C1OC2(C=CC1C)CC1CC(CC=C(C)C(OC3CC(OC)C(OC4CC(OC)C(N(C)CC(=O)OC(C)C)C(C)O4)C(C)O3)C(C)C=CC=C3COC4C(O)C(C)=CC(C(=O)O1)C34O)O2 (stereo not shown) [2.033]
more than 80%: [1] | [2] | [3] | [4] | [5] | [6] | [7]

CCC(C)[C@H]1O[C@]2(C=C[C@@H]1C)C[C@@H]1C[C@@H](C/C=C(\C)[C@@H](O[C@H]3C[C@H](OC)[C@@H](O[C@H]4C[C@H](OC)[C@H](N(C)Cc5ccc(F)c(C(F)(F)F)c5)[C@H](C)O4)[C@H](C)O3)C(C)/C=C/C=C3\CO[C@@H]4[C@H](O)C(C)=C[C@@H](C(=O)O1)[C@]34O)O2 (stereo partly shown) [2.010]
more than 80%: [1] | [2] | [3] | [4] | [5] | [6] | [7]

CCC(C)[C@H]1O[C@]2(C=C[C@@H]1C)C[C@@H]1C[C@@H](C/C=C(\C)[C@@H](O[C@H]3C[C@H](OC)[C@@H](O[C@H]4C[C@H](OC)[C@H](N(C)CC(=O)OC(C)(C)C)[C@H](C)O4)[C@H](C)O3)C(C)/C=C/C=C3\CO[C@@H]4[C@H](O)C(C)=C[C@@H](C(=O)O1)[C@]34O)O2 (stereo partly shown) [2.008]
more than 80%: [1] | [2] | [3] | [4] | [5] | [6] | [7]

C=C(Br)CN(C)C1C(C)OC(OC2C(C)OC(OC3C(C)=CCC4CC(CC5(C=CC(C)C(C(C)CC)O5)O4)OC(=O)C4C=C(C)C(O)C5OCC(=CC=CC3C)C45O)CC2OC)CC1OC (stereo not shown) [2.032]
more than 80%: [1] | [2] | [3] | [4] | [5] | [6] | [7]

CCC(C)[C@H]1O[C@]2(C=C[C@@H]1C)C[C@@H]1C[C@@H](C/C=C(\C)[C@@H](O[C@H]3C[C@H](OC)[C@@H](O[C@H]4C[C@H](OC)[C@H](N(C)C(C)C)[C@H](C)O4)[C@H](C)O3)C(C)/C=C/C=C3\CO[C@@H]4[C@H](O)C(C)=C[C@@H](C(=O)O1)[C@]34O)O2 (stereo partly shown) [2.012]
more than 80%: [1] | [2] | [3] | [4] | [5] | [6] | [7]

CCC(C)C1OC2(C=CC1C)CC1CC(CC=C(C)C(OC3CC(OC)C(OC4CC(OC)C(N(C)CC=CC#CC(C)(C)C)C(C)O4)C(C)O3)C(C)C=CC=C3COC4C(O)C(C)=CC(C(=O)O1)C34O)O2 (stereo not shown) [2.027]
more than 80%: [1] | [2] | [3] | [4] | [5] | [6] | [7]

CCC(C)C1OC2(C=CC1C)CC1CC(CC=C(C)C(OC3CC(OC)C(OC4CC(OC)C(N(C)Cc5ccc(F)cc5)C(C)O4)C(C)O3)C(C)C=CC=C3COC4C(O)C(C)=CC(C(=O)O1)C34O)O2 (stereo not shown) [2.030]
more than 80%: [1] | [2] | [3] | [4] | [5] | [6] | [7]

CC=CCN(C)[C@@H]1[C@H](C)O[C@@H](O[C@H]2[C@H](C)O[C@@H](O[C@@H]3/C(C)=C/C[C@@H]4C[C@@H](C[C@]5(C=C[C@H](C)[C@@H](C(C)CC)O5)O4)OC(=O)[C@@H]4C=C(C)[C@@H](O)[C@H]5OC/C(=C\C=C\C3C)[C@]54O)C[C@@H]2OC)C[C@@H]1OC (stereo partly shown) [2.006]
more than 80%: [1] | [2] | [3] | [4] | [5] | [6] | [7]

CCC(C)C1OC2(C=CC1C)CC1CC(CC=C(C)C(OC3CC(OC)C(OC4CC(OC)C(N(C)Cc5ccc(-c6ccccc6)cc5)C(C)O4)C(C)O3)C(C)C=CC=C3COC4C(O)C(C)=CC(C(=O)O1)C34O)O2 (stereo not shown) [2.026]
more than 80%: [1] | [2] | [3] | [4] | [5] | [6] | [7]

CCC(C)NC1C(C)OC(OC2C(C)OC(OC3C(C)=CCC4CC(CC5(C=CC(C)C(C(C)CC)O5)O4)OC(=O)C4C=C(C)C(O)C5OCC(=CC=CC3C)C45O)CC2OC)CC1OC (stereo not shown) [1.039]
more than 80%: [1] | [2] | [3] | [4] | [5] | [6] | [7]

CCC(C)[C@H]1O[C@]2(C=C[C@@H]1C)C[C@@H]1C[C@@H](C/C=C(\C)[C@@H](O[C@H]3C[C@H](OC)[C@@H](O[C@H]4C[C@H](OC)[C@H](N(C)Cc5ccc(F)c(F)c5)[C@H](C)O4)[C@H](C)O3)C(C)/C=C/C=C3\CO[C@@H]4[C@H](O)C(C)=C[C@@H](C(=O)O1)[C@]34O)O2 (stereo partly shown) [2.011]
more than 80%: [1] | [2] | [3] | [4] | [5] | [6] | [7]

CCC(C)[C@H]1O[C@]2(C=C[C@@H]1C)C[C@@H]1C[C@@H](C/C=C(\C)[C@@H](O[C@H]3C[C@H](OC)[C@@H](O[C@H]4C[C@H](OC)[C@H](N(C)CC(=O)c5cccc(Br)c5)[C@H](C)O4)[C@H](C)O3)C(C)/C=C/C=C3\CO[C@@H]4[C@H](O)C(C)=C[C@@H](C(=O)O1)[C@]34O)O2 (stereo partly shown) [2.021]
more than 80%: [1] | [2] | [3] | [4] | [5] | [6] | [7]
